From publication doi:10.1101/2024.08.04.605933
Results are given in words; binding and its absence hold for the method and conditions named. Some binding calls cover weakened binding; strength is not graded here. Sequences can lack the tags named with a protein.

The chains behind the UniProt entries cited, without tags or fusion partners.
UniProt Q07812: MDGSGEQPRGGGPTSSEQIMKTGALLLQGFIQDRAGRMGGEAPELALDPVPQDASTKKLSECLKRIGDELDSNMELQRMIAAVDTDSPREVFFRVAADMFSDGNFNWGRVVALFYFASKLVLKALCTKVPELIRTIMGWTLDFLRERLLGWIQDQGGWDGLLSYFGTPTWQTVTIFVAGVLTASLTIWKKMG

Target: T1, voltage dependent anion channel 2 (VDAC2) (human (endogenous in HeLa)) (UniProt P45880)
T1 sequence: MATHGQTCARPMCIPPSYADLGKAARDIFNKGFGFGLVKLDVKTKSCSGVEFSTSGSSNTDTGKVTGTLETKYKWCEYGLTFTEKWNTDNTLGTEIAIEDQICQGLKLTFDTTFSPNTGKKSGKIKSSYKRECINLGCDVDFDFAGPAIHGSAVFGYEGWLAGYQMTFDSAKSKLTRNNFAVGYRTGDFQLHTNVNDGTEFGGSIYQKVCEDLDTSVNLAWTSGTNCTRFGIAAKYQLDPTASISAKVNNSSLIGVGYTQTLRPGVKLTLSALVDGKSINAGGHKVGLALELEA
Experiment: native gel or EMSA

BCL-2-associated X protein (BAX) (from UniProt Q07812 1-192)
binding: binds
